The data set can be described thus: general procedure: solution-phase peptide synthesis; trimethylacetyl (pivaloyl) chloride/4-methylmorpholine for fragment coupling; BO.

We go through five substances from patent US5739104A (Schering Corporation, priority 1995, dated 1998).

HELM strings list residues between dots; [ac] is acetyl, [am] amide, other brackets name non-standard units.

Substance “Cyclo-depsi-N-methyl-O-benzyl-threonyl-(2-hydroxyl-2-cyclohexylacetyl)-N-methylvalyl-phenylanalyl-N-methylphenylanalyl-prolyl-allo-isoleucyl-N-methylvalyl-leucine” displayed a cyclisation yield (cyclisation step) of 16%.

Take “PEPTIDE1{[MeThr].[R-Hcha].[MeVal].F.[MePhe].P.[aIle].[MeVal].L}$PEPTIDE1,PEPTIDE1,1:R1-9:R2$$$V2.0”: the step yield (late stage modification step) was 65%.

On to “Cyclo-depsi-N-methylthreonyl-(2-hydroxyl-2-cyclohexylacetyl)-N-methylvalyl- phenylanalyl-D-N-methylphenylanalyl-prolyl-allo-isoleucyl-N-methylvalyl-leucine”, for which the step yield (late stage modification step) was 49% of yield.

In turn, “N-Boc-phenylanalyl-N-methylphenylanalyl-prolyl-allo-isoleucyl-N-methylvalyl-leucyl-L-O-Bn-threonyl-(R)-hexahydromandelate-L-methyvaline-O-benzyl ester” showed a step yield (coupling step) of 61%.

For “Cyclo-depsi-N-methylthreonyl-(2-hydroxyl-3-methylpentanoyl)-N-methylvalyl-phenylanalyl-N-methylphenylanalyl-prolyl-allo-isoleucyl-N-methylvalyl-leucin”, where the note is “late stage modification step”, the step yield is reported as 22%.
